Source: US20260027190A1, “OVARIAN TUMOR DEUBIQUITINASE OXIDATION AND USES THEREOF” (The University of Vermont and State Agricultural College, priority 2022, published 2026)
At least one structure is not confirmed: it was looked up by name or label, or the drawing left a doubt.

Tests used:
Format in all cases: cell-based
[1] = tested on: mouse tracheal epithelial (MTE) cells; assay: Total GSH measurement (DTNB assay) in MTE cells; conditions: MTE cells pretreated 1 hour with increasing doses of Er or SAS, then IL1B 24 hours
Method: It has been previously shown that the pleotropic cytokine IL1B augments glycolysis in lung epithelial cells, and that interleukin 1B (IL1B) is linked to oxidative stress. The pentose phosphate pathway, an offshoot of glycolysis, regulates the redox environment by providing nicotinamide adenine dinucleotide phosphate (NADPH) reducing equivalents necessary for glutathione (GSH) homeostasis. The effects of GSH in response to IL1B were examined. Briefly, GSH was measured using a 5,5′-dithio-bis (2-nitrobenzoic acid) (DTNB) assay in both control and IL1B-stimulated mouse tracheal epithelial cells. […] Statistics on the left panel represent the total GSH levels, without differentiating between labeled and unlabeled portions of GSH (P-value*<0.05, ****<0.0001).
A regulator of GSH homeostasis is the transporter system xC-, which exports glutamate and concomitantly imports cystine in a 1:1 ratio. […] Then, GSH levels were measured in cells exposed to increasing doses of Er or SAS (FIG. 2G). Extracellular glutamate levels in cell culture supernatant of cells pretreated with 0.5 micromolar Er (left) or 100 micromolar SAS (right) for 1 hour before IL1B stimulation were also measured (FIG. 2H). […] However, no changes in cell viability using erastin (5 micromolar) or sulfasalazine (500 micromolar) were detected (FIG. 2I; P-value*<0.05, ***<0.001, ****<0.0001). […]

[2] = tested on: mouse tracheal epithelial (MTE) cells; assay: Extracellular glutamate in cell culture supernatant of MTE cells; conditions: MTE cells pretreated with 0.5 micromolar Er for 1 hour before IL1B stimulation
Excerpt: A regulator of GSH homeostasis is the transporter system xC-, which exports glutamate and concomitantly imports cystine in a 1:1 ratio. Once inside the cells, cystine is reduced to two cysteines, the latter being the rate limiting amino acid required for GSH synthesis. These relationships were examined further. […] To address whether IL1B-induced increases in GSH are system xC- dependent, two system xC- inhibitors, erastin (Er) and sulfasalazine (SAS) were used. Cells were pretreated for one hour, followed by IL1B treatment for 24 hours. Then, GSH levels were measured in cells exposed to increasing doses of Er or SAS (FIG. 2G). Extracellular glutamate levels in cell culture supernatant of cells pretreated with 0.5 micromolar Er (left) or 100 micromolar SAS (right) for 1 hour before IL1B stimulation were also measured (FIG. 2H). […] System xC- inhibition is known to induce ferroptosis, an iron-dependent mode of cell death characterized by increased lipid peroxidation. However, no changes in cell viability using erastin (5 micromolar) or sulfasalazine (500 micromolar) were detected (FIG. 2I; P-value*<0.05, ***<0.001, ****<0.0001).
Primary mouse tracheal epithelial (MTE) cells were isolated from C57BL/6NJ wild-type or C57BL6/NJ mice lacking Glrx1 gene and cultured. […]
Glutamate in media was measured using Biovision kit following manufacturer's protocol.

[3] = tested on: mouse tracheal epithelial (MTE) cells; assay: Calcein AM cell viability in MTE cells; conditions: erastin 5 micromolar
[4] = tested on: mouse tracheal epithelial (MTE) cells; assay: ELISA of IL1B-induced pro-inflammatory cytokines in MTE cell supernatant; conditions: 1 hour pretreatment with erastin 0.5 micromolar, then 24 hours IL1B

Structure (SMILES): CCOc1ccccc1-n1c(C(C)N2CCN(C(=O)COc3ccc(Cl)cc3)CC2)nc2ccccc2c1=O (stereo not drawn) [erastin]
- IL1B-induced increases in GSH [1]: significantly decreased
- IL1B-induced extracellular glutamate levels [2]: significantly decreased
- cell viability [3]: no changes
- CCL20 secreted in cell culture supernatant [4]: significantly attenuated
- KC secreted in cell culture supernatant [4]: significantly attenuated
- TSLP secreted in cell culture supernatant [4]: significantly attenuated
